{"source": "paper PMC12795458", "biological_target": "DnaN sliding clamp, Gal4 two-hybrid fusion (S. pneumoniae) (UniProt O06672)", "test": "two-hybrid; Gal4-based PGAD-C1 and PGBD-C1 fusions; yeast PJ69-4a mated with PJ69-4α; growth of diploid cells after 8 or 20 days at 30°C on synthetic complete medium lacking leucine, uracil and histidine (HIS3 reporter); empty-vector controls", "note": "These are yes or no findings as the source states them, for the method shown. Some entries that bind do so weakly or less than the wild type. Where a sequence is shown, tags or fusion partners need not be part of it."}
{"binder": "DnaN sliding clamp, Gal4 two-hybrid fusion (protein, UniProt O06672 1-378) MIHFSINKNLFLQALNTTKRAISSKNAIPILSTVKIDVTNEGITLIGSNGQISIENFISQKNEDAGLLITSLGSILLEASFFINVVSSLPDVTLDFKEIEQNQIVLTSGKSEITLKGKDSEQYPRIQEISASTPLILETKLLKKIINETAFAASTQESRPILTGVHFVLSQHKELKTVATDSHRLSQKKLTLEKNSDDFDVVIPSRSLREFSAVFTDDIETVEIFFANNQILFRSENISFYTRLLEGNYPDTDRLIPTDFNTTITFNVVNLRQSMERARLLSSATQNGTVKLEIKDGVVSAHVHSPEVGKVNEEIDTDQVTGEDLTISFNPTYLIDSLKALNSEKVTISFISAVRPFTLVPADTDEDFMQLITPVRTN", "values": [{"measurement": "binding", "result": "binds"}]}
